Among all 1,400 compounds or so, about 50 (4%) were called active.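 Rule for the calls: active = fitted curve reaches 30% CPE protection at or below the top valid dose, with every test run called active; inconclusive = test runs disagree, some active and some not; inactive = every test run inactive, including effects in the wrong direction.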 The list shows a part of the results. Measured potencies and affinities stand elsewhere.
Test: antiviral rescue of DENV2-infected BHK-21 cells – cell-based, ATP luminescence, cherry-pick, dose response (AID 687031);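 note: 0% = infected DMSO wells and 100% = uninfected cell wells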
Conditions: BHK-21 DENV2 CPE protection, 5 d; at 19.5 µM (top of the series) unless noted

CPE protection (higher = active), inactive:
Cc1ccc(S(=O)(=O)N(C)C[C@@H]2OCCCC[C@H](C)Oc3ccc(NS(=O)(=O)c4c(C)noc4C)cc3C(=O)N([C@H](C)CO)C[C@@H]2C)cc1 -10.2%, COc1ccccc1NC(=O)N1CCN(c2ccccn2)CC1 -9.27%, CN1c2ccc(-c3cccc(F)c3)cc2[C@H]2[C@H](CCN2C(=O)Cc2cccnc2)[C@H]1CO -9.94%, CN(C)c1ccc(CNS(=O)(=O)c2ccc3c(c2)C(C)(C)C(=O)N3C)cc1 -18.5%, CCCS(=O)(=O)N1CCCC(C(=O)NCCc2cccc(C)c2)C1 (configuration not stated) 16.4%, CC(=O)N1CC2(C1)[C@H](c1ccc(-c3ccc(F)cc3)cc1)[C@H](CO)N2C(C)=O 14%, Cc1ccc(-c2cc(=O)c3ccc(F)cc3[nH]2)cc1 12.4%, C=CCC1NS(=O)(=O)OC(COC)C1C (configuration not stated) -12.4%, CCCNC(=O)NC[C@@H]1[C@@H](c2ccc(C3=CCCC3)cc2)[C@@H](CO)N1C(=O)CC -11.2% [at 10 µM], CC1CCCN(CCCOc2ccc(Br)cc2Cl)C1 (configuration not stated) -14.9%, C[C@@H]1CN([C@H](C)CO)C(=O)c2cc(NC(=O)c3ccccc3)ccc2O[C@@H](C)CCCCO[C@@H]1CN(C)S(=O)(=O)c1ccc(F)cc1 14.4%, CCOc1ccc(/C=N/NC(=O)c2ccccc2O)cc1CN1CC2CC(C1)c1cccc(=O)n1C2 (configuration not stated) -7.87%, CCOC(=O)C1CCN(Cc2c(C(=O)N3CCOCC3)nc3c(C)cccn23)CC1 4.53%, CC(=O)Nc1cccc(OCCCNC(=O)c2ccc(C(C)(C)C)cc2)c1 -24%, O=C(C[C@@H]1CC[C@H]2[C@@H](COC[C@H](O)CN2C(=O)c2ccccc2F)O1)NCc1ccccc1 -6.08%, C[C@@H]1CCCCO[C@@H](CN(C)S(C)(=O)=O)[C@H](C)CN([C@@H](C)CO)C(=O)c2cc(NS(=O)(=O)c3ccc(Cl)cc3)ccc2O1 -4.56%, Fc1ccc(CNC2CCN(Cc3ccccc3)CC2)cc1 -0.778%, Cc1cccc(OC(C)C(=O)Nc2nc(-c3ccncc3)cs2)c1 (configuration not stated) 1.01%, Cc1oc2c(C)c3oc(=O)c(CCC(=O)NCCN4CCOCC4)c(C)c3cc2c1C -8.16%, O=S1(=O)N[C@@H](Cc2ccccc2)COc2cc(N3CCOCC3)ccc21 -17.1%, C/C(CC(=O)Nc1ccc(Cl)c(Cl)c1)=N\NC(=O)Cc1ccccc1 -30.9%, Cc1cc(C)n2c(NC3CCCCC3)c(-c3ccccn3)nc2n1 -20.9%, Cc1ccc2nc(-c3cccc(Br)c3)c(Cc3ccsc3)n2c1 -1.55%, CCOc1ccc(N(CC(=O)NC2CCCC(C)C2C)S(=O)(=O)c2c(C)noc2C)cc1 (configuration not stated) -13.2%, O=C(COC(=O)c1ccc(Cl)nc1)Nc1ccc(N2CCCCC2)cc1 -5.9%, Cc1cc(C(=O)N[C@@H](c2ccccc2)[C@]2(C)C[C@H]2[C@@H](C)C(=O)Nc2ccc3ccccc3c2)no1 -7.01%, O=S(=O)(Cc1cc(N2CCOCC2)nc(-c2ccccn2)n1)c1ccccc1 -19.3%, CCCC(=O)N(Cc1cc(=O)[nH]c2ccccc12)c1cccc(C)c1 -5.24%, CO[C@@H]1CN(C)C(=O)c2cc(NC(=O)c3ccccc3)ccc2OC[C@H](C)N(C(=O)C2CC2)C[C@@H]1C 9.26%, CCOC(=O)[C@]12CCC=C1N(Cc1cccc3ccccc13)C(=O)[C@H](CC(=O)N1CCCC1)C2 -0.647%, COc1cccc(S(=O)(=O)N2CC3(CN(C(=O)Nc4ccc(F)cc4)[C@H](CO)c4[nH]c5cc(OC)ccc5c43)C2)c1 6.53%, O=C(Nc1ccc2c(c1)OCCO2)c1cccc(C(=O)Nc2ccc3c(c2)OCCO3)c1 16.2%, Cn1ccc2c(-c3cccc(C=O)c3)cc3c(c21)C1CCC3O1 (configuration not stated) -2.67%, O=C(CNC(=O)N1CC(=O)Nc2ccccc21)NCc1ccc(F)cc1 13.8%, CCCNC(=O)C1(C)CCCN(Cc2ccc(C#N)cc2)C1 (configuration not stated) -18%, COc1ccc(C(=O)OCc2c(-c3cccc(OC)c3)ncc3ccccc23)cc1 6.97%, Cc1cccc(C)c1-n1nnnc1C1(C)CCC(=O)N1Cc1cccnc1 (configuration not stated) 14.1%, CC(C)c1ccccc1OCCCCN1CCCCC1 12.7%, COC(=O)[C@@H]1C[C@H]2CC[C@H](O)C[C@H]2N1Cc1ccc(C(F)(F)F)cc1 2.97%, CCCCN1C(=O)C(CC(=O)NC2CC2)CC(C(=O)N(CC)CC)=C1C (configuration not stated) 17.3%, O=C(c1ccccc1F)N1CCC2CC1c1cc(N3CCCCC3)ccc12 (configuration not stated) -27%, CNc1cc(-c2ccc(O)cc2C)ncn1 -18%, O=C(C[C@H]1CC[C@@H]2[C@H](COC[C@H](O)CN2C(=O)Cc2ccccc2)O1)NC1CCCC1 2.96% [at 21 µM], C[C@H](CO)N1C[C@H](C)[C@H](CN(C)C(=O)c2ccccc2)Oc2cc(C3=CCCCC3)ccc2S1(=O)=O -19.4%, CCC1CN(S(=O)(=O)c2ccc3c(c2)NC(=O)CC(=O)N3)c2cc(Cl)ccc2O1 (configuration not stated) -4.24%, COc1ccc(-c2cnc3n2CCCCC3)cc1 11.5%, CCc1ccccc1OCC(=O)NNCC(=O)Nc1cccc(C#N)c1 -16%, COc1cc2cc(CCCOC(=O)CCC(=O)O)oc(=O)c2cc1OC 11.1%, O=C(Nc1ccccc1C(=O)NCc1cccnc1)c1ccccc1Cl -2.23%, Cc1nc2ccc(C(=O)NC(C)(C)C)cn2c1N(C)C(=O)CCc1ccccc1 8.15%, O=C(Nc1ccc2c(c1)CCC2)c1ccccc1 8.37%, O=C(NC1CCCCC1)N[C@H]1C=C[C@@H](CC(=O)N2CCOCC2)O[C@@H]1CO 15.7%

— PubChem BioAssay AID687031 (Broad Institute, 2013)
